These are yes or no findings as the source states them, for the method shown. In cells and extracts the contact can be indirect. Some results given as binding are weak or reduced against the parent protein; the word gives no strength. Each block holds one molecule with its values, some of them ahead of it.
Tests used:
Experiment in all cases: co-IP; endogenous proteins; lysates of HCC cells (Hep3B, HepG2) in RIPA buffer, 1-2 mg total protein with 2 μg primary antibody, protein G-agarose, immunoblot; control cells and cells with sh-RANBP2 and/or sh-CEBPα
[1] = biological target: CCAAT/enhancer-binding protein beta (CEBPβ), endogenous (human (endogenous in Hep3B and HepG2)) (UniProt P17676)
[2] = biological target: CCAAT/enhancer-binding protein alpha (CEBPα), endogenous (human (endogenous in Hep3B and HepG2)) (UniProt P49715)
[3] = biological target: T1, O-GlcNAcase (OGA), endogenous (human (endogenous in HCC cells)) (UniProt O60502)
T1 sequence: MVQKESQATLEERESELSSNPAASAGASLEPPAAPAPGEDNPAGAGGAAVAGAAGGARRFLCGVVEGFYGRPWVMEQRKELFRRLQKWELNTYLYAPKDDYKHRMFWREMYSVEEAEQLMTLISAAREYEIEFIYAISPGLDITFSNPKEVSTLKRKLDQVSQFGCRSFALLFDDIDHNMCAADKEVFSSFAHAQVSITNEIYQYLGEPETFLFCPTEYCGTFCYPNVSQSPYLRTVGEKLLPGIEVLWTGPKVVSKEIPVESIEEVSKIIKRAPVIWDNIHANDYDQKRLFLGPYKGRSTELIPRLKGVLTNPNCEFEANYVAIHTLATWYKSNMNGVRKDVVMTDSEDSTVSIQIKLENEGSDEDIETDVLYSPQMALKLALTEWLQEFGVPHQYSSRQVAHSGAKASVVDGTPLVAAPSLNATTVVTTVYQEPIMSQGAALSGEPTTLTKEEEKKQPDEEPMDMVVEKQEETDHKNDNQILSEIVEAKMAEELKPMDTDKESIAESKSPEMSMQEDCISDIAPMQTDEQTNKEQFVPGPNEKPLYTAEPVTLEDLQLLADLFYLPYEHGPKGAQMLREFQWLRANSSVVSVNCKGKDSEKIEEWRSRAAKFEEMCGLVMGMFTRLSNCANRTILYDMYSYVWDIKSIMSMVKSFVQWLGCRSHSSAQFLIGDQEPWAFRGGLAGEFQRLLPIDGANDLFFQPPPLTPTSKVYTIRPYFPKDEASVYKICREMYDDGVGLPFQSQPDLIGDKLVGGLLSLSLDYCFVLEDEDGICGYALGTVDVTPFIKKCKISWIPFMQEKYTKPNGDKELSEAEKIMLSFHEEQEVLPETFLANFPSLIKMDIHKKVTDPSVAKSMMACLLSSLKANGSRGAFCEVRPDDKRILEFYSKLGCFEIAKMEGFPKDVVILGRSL

By UniProt entry, the sequences of proteins in these tests, tags left out.
UniProt P17676: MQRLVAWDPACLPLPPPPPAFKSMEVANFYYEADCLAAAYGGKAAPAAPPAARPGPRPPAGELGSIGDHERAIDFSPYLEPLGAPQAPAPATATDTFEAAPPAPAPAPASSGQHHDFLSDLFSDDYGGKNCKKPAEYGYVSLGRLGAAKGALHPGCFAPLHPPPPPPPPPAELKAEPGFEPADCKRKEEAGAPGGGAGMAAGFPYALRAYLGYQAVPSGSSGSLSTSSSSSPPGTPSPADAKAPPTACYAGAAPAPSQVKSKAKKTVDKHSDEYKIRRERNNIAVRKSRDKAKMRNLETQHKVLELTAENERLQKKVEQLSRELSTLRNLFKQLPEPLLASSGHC
UniProt P49715: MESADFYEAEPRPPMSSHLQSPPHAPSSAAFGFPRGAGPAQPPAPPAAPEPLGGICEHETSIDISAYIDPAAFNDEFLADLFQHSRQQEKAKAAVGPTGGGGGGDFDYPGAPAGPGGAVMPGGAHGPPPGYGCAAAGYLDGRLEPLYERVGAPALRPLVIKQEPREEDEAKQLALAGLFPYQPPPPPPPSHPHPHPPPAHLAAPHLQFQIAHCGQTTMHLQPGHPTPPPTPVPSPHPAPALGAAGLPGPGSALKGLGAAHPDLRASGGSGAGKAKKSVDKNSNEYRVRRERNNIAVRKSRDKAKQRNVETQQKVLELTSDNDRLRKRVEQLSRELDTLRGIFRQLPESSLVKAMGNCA
UniProt P49792: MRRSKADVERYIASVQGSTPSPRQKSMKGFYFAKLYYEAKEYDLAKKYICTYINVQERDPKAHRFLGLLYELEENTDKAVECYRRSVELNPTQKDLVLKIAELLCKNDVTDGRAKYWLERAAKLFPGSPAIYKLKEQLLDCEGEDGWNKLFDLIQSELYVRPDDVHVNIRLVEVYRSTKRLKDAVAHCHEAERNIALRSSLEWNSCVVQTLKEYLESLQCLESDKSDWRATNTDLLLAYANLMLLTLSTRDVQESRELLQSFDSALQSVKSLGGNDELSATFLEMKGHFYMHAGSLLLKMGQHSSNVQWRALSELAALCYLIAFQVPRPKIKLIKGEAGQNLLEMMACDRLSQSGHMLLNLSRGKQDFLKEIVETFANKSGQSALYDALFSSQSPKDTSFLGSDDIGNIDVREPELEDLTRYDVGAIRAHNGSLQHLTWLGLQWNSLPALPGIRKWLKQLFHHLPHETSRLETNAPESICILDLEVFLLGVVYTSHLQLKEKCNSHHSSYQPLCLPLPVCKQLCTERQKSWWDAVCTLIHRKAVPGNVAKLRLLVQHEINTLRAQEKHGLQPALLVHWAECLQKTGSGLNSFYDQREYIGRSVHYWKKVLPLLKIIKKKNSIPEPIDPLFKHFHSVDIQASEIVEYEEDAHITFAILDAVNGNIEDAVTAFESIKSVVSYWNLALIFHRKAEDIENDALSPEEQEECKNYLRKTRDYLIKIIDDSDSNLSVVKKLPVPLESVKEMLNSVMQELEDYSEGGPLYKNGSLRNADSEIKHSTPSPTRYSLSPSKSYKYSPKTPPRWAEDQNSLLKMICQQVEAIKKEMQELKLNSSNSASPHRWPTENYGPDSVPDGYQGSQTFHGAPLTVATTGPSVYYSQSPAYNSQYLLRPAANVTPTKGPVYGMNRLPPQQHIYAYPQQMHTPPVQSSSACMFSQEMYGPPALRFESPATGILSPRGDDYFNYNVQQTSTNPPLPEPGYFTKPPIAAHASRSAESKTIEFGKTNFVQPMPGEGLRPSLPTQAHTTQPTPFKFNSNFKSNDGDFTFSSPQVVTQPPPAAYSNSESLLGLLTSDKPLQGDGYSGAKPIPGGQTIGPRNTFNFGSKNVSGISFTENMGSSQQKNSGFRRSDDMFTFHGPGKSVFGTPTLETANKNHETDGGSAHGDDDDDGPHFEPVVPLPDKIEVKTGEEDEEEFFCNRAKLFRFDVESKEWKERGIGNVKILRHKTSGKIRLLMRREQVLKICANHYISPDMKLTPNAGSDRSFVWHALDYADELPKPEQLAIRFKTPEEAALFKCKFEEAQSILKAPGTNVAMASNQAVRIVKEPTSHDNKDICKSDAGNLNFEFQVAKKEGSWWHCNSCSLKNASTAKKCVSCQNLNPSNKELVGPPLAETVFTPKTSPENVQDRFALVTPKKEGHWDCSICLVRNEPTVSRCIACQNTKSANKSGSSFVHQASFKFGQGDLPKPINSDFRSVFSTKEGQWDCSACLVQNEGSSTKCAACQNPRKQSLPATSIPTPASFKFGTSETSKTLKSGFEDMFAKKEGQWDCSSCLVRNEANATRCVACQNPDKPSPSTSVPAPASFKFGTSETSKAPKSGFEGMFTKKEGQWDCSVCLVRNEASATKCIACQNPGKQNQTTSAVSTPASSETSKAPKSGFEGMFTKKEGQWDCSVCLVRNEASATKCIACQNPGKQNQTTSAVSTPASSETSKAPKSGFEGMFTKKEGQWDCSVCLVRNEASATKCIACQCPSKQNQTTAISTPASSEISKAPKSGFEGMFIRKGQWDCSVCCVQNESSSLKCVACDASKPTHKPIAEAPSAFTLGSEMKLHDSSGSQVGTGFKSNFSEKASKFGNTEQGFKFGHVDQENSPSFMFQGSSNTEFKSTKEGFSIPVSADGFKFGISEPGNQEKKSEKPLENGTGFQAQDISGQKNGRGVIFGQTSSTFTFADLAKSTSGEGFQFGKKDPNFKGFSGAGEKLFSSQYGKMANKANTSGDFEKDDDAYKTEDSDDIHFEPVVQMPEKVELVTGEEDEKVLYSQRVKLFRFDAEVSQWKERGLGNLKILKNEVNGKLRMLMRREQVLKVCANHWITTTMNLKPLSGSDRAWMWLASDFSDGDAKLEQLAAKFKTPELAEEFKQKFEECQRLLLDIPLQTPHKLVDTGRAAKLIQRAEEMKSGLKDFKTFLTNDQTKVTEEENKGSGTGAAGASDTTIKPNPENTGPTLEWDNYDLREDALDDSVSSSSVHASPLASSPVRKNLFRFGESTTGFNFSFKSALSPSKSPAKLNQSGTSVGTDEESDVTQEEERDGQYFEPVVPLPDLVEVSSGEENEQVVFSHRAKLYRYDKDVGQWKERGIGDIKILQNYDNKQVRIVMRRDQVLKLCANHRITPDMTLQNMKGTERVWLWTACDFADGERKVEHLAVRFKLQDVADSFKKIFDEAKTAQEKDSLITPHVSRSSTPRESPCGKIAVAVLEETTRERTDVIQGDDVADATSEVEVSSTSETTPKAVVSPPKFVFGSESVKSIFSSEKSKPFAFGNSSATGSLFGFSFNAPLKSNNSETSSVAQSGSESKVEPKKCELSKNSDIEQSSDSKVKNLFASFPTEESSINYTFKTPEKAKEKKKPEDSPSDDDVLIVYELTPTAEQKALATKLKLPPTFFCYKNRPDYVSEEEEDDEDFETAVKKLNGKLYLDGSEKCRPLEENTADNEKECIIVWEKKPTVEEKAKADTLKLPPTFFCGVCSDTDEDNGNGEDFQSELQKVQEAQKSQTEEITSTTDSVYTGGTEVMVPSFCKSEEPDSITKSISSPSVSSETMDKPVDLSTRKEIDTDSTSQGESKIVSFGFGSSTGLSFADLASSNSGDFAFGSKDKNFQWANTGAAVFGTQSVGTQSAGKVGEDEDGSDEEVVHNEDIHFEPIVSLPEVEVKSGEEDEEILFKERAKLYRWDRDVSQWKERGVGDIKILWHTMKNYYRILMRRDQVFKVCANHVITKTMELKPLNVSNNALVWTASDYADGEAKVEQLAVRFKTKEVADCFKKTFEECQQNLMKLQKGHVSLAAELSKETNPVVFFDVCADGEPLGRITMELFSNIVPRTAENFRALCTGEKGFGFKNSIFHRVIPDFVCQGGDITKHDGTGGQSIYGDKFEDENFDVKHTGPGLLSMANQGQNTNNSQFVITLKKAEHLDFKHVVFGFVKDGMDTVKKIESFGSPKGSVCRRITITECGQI

[4] = biological target: T2, peroxisome proliferative-activated receptor gamma coactivator 1 alpha (PGC1α), endogenous (human (endogenous in HCC cells)) (UniProt Q9UBK2)
T2 sequence (chain, O-GlcNAc (sites not given)): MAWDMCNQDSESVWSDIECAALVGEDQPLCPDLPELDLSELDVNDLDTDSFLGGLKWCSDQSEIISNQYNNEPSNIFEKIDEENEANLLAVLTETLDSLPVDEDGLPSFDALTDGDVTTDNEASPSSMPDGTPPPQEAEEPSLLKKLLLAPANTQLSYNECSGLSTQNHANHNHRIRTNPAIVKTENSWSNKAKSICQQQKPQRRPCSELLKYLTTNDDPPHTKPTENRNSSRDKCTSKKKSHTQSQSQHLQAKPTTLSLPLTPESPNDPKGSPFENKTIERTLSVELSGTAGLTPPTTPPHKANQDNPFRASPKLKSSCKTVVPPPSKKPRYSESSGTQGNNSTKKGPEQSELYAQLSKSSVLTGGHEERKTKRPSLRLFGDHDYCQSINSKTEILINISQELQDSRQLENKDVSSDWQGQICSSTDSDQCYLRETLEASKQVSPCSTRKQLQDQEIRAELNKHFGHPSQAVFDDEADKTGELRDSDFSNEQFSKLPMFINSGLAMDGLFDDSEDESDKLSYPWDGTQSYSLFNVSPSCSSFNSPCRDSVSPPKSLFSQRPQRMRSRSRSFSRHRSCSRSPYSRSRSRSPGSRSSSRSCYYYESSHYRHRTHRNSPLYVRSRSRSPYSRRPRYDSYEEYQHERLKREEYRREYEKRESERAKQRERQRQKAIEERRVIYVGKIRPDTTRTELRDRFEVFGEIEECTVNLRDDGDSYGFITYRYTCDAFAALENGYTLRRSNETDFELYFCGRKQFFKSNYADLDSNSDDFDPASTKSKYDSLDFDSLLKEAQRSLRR

- binding [1]: no binding
- binding [2]: binds
- binding [3]: no binding
Molecule: RAN-binding protein 2 (RANBP2), endogenous (from UniProt P49792 1-3224)

- binding [4]: binds
B1: O-GlcNAcase (OGA), endogenous (enzyme, UniProt O60502 1-916)
chain: T1 sequence
